This note sets out measurements from PubChem BioAssay AID2685 (National Center for Advancing Translational Sciences (NCATS), 2010).

The list shows a part of the results. Further columns of the screen follow, without active or inactive calls. Most of these compounds were active or inconclusive in the main read-out, so they are no random draw. Potencies come from curve fits of mixed quality, noted in brackets.

A short description of this assay: qHTS Assay for Lipid Storage Modulators in Drosophila S3 Cells.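 As to cell number change: cells counted by Cell Tracker Red CMTPX staining in the red channel.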 The note with it: BODIPY lipid droplet fluorescence, 18-24 h; for cell number change: measured here: cell count max response, cells fed with added oleic acid. Summed up: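 Drosophila S3 cells got compounds at several concentrations plus oleic acid (400 uM solution). Laser-scanning cytometry with 488 nm excitation read lipid droplets at 500-530 nm and cells at 575-640 nm. Percent activity was relative to 20 uM Triacsin C.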
In general terms: qHTS replaces the single test concentration by a dilution series.

[1] abbreviates: measured here: lipid fluorescence (Fed channel) AC50, cells fed with added oleic acid.
The mark [2] stands for this setting: measured here: cell number channel AC50, cells fed with added oleic acid.

One may read the AC50 as the concentration at which the activity in the assay is half-maximal. Consider `Cc1[nH]c2ccccc2c1C(=O)CN1CCSCC1`, for which the cell number change is 0.485%. Moreover, the half-maximal activity concentration (AC50) under setting [1] is 92 nM [falling, full curve, poor fit].

Consider `CCOC(=O)c1sc(NC(=O)COC(=O)c2ccco2)nc1C`, for which the cell number change is -6.29%.

With `COc1ccccc1/C=C/CN1CCCC(CCC(=O)NCc2ccc(F)c(F)c2)C1` (stereo unspecified), the cell number change stood at 7.28%. Moreover, the concentration at half-maximal activity (AC50) under setting [1] was 5170 nM [rising, full curve, poor fit].

In the case of `CCOC(=O)C1=C(CSc2nc(C)cc(C)c2C#N)OC(N)=C(C#N)C1c1ccccc1` (stereo unspecified), the cell number change was 17.9%. The AC50 under setting [1] is 2310 nM [rising, full curve].

For `COc1ccc2c(c1)c1ccc3c(c1n2C)C(=O)C=CC3=O`, the cell number change was -65.7%. Also, under setting [2], the AC50 is 9200 nM [falling, partial curve]. Moreover, the AC50 under setting [1] was 8200 nM [falling, partial curve].

Consider `CCC(O)c1nc2ccccc2n1CCc1ccccc1` (stereo unspecified), for which the half-maximal activity concentration (AC50) under setting [2] is 116 nM [falling, full curve, poor fit].

As to `COc1ccc(Cl)cc1NC(=O)CSc1nnc(CN2CCOCC2)n1-c1ccc(Cl)cc1`, the cell number change was -5.83%. Further, under setting [2], the half-maximal activity concentration (AC50) is 82 nM [rising, full curve]. Besides, the AC50 under setting [1] is 92 nM [rising, full curve, poor fit].

In the case of `COc1cc([N+](=O)[O-])ccc1NC(=O)CCS(=O)(=O)c1ccc2c(c1)n(C)c(=O)c(=O)n2C`, the cell number change is 10.9%.

With `Cc1nc(-c2ccccc2O)n(-c2ccccc2)n1`, the half-maximal activity concentration (AC50) under setting [2] is 1460 nM [rising, single point].

Turning to `Cc1ccc(C(=O)CCC(=O)Nc2cccc(C)c2)cc1`, the cell number change is 10.5%. Moreover, the concentration at half-maximal activity (AC50) under setting [1] is 3660 nM [rising, full curve].

In the case of `O=C(NCCC1=CCCCC1)c1cc(-c2ccccn2)nc2ccccc12`, the cell number change is -24.4%. The half-maximal activity concentration (AC50) under setting [1] was 29100 nM [falling, single point].

With `O=C(C1CC(=O)N(c2ccccc2)C1)N1CCN(c2ccccc2)CC1` (stereo unspecified), the cell number change is -3.76%. Moreover, the AC50 under setting [1] was 29100 nM [rising, single point].

For the molecule `Cn1cnc(NCc2ccccc2)c1[N+](=O)[O-]`, the cell number change was -2.67%.

As to `COCCCNCCCOc1ccc(C(C)(C)c2ccccc2)cc1`, under setting [2], the half-maximal activity concentration (AC50) is 2590 nM [falling, partial curve, poor fit].

Take `COc1ccc(NC2=NC(=S)N(c3cccc(C)c3)C23CCCCC3)cc1`: the cell number change was 4.06%. Besides, the AC50 under setting [2] is 5800 nM [falling, single point].

Regarding `Cc1c(C(=O)OCC(=O)NCc2ccccc2)oc2ccccc12`, under setting [2], the half-maximal activity concentration (AC50) is 7310 nM [falling, partial curve, poor fit].

For the molecule `O=C(O)CCCCCNC(=O)c1ccncc1`, the cell number change is 157%.

As for `CC1CCc2c(nc3ncnn3c2N2CCN(c3ccccc3)CC2)C1` (stereo unspecified), the concentration at half-maximal activity (AC50) under setting [2] is 651 nM [rising, partial curve] and the AC50 under setting [1] is 517 nM [rising, partial curve].

With `CCN(CCNC(=O)Cn1c(=O)sc2ccccc21)c1ccccc1`, the cell number change is -35.6%. Besides, the AC50 under setting [2] is 16400 nM [falling, single point]. In addition, the half-maximal activity concentration (AC50) under setting [1] was 29100 nM [falling, single point].

Take `CC(=O)Cc1nsc(NC(=O)c2ccc(COc3ccccc3Cl)o2)n1`: the cell number change turned out to be 4.78%.

For `COc1cc(NC(=S)NCCSc2ccc(C)cc2)cc(OC)c1`, the cell number change turned out to be 14.5%. Moreover, the half-maximal activity concentration (AC50) under setting [2] was 10.3 nM [rising, full curve, poor fit].

As for `O/N=C1/CCc2nonc2/C1=N/O`, the cell number change was -65.4%. Also, the AC50 under setting [2] is 731 nM [falling, full curve]. For the same molecule, under setting [1], the half-maximal activity concentration (AC50) was 4110 nM [falling, full curve].

As to `Cc1ccccc1NC(=O)C(=O)NCCc1ccccc1`, the cell number change stood at 64.2%. Besides, under setting [2], the concentration at half-maximal activity (AC50) is 920 nM [rising, full curve]. For the same molecule, the half-maximal activity concentration (AC50) under setting [1] is 4110 nM [rising, partial curve].

`COc1cc(CC(NC(C)=O)C(=O)NC2CCN(C(=O)C3CC3)CC2)cc(OC)c1` (stereo unspecified): the cell number change is -7.69%. Also, the AC50 under setting [2] was 2310 nM [falling, partial curve, poor fit].

As for `CCOC(=O)c1nc(Nc2ccccc2)c2ccccc2n1`, the AC50 by setting is: under setting [2], 1840 nM [rising, partial curve]; under setting [1], 2060 nM [rising, partial curve].

Consider `CCOc1ccc(S(=O)(=O)NCc2ccccc2OC)cc1`, for which the cell number change was found to be 59.9%.

Take `Cc1ccc(Cn2nc(C)c(NC(=O)CSc3nc4c(c(C(F)(F)F)n3)CCc3ccccc3-4)c2C)cc1`: the cell number change amounted to 2.65%. Further, the AC50 under setting [1] is 58 nM [rising, full curve].

For `Cc1ccc(CN2CCC(CNC(=O)C3CCCN(c4ncnc5c4nc4n5CCCCC4)C3)CC2)cc1` (stereo unspecified), the cell number change stood at 5.81%. Also, under setting [1], the AC50 was 29100 nM [rising, single point].

As to `OCc1cc(Br)ccc1OCc1nc2ccccc2s1`, the cell number change stood at 22.3%.

As for `FC(F)(F)c1cnc(-c2cnc(-c3ccncc3)nc2)c(Cl)c1`, the AC50 under setting [1] was 580 nM [rising, single point].

As to `CC(C)c1ccc(NC(=O)C2C3C=CC4(O3)C2C(=O)N(CCCN2CCOCC2)C4C(=O)NC2CCCCC2)cc1` (stereo unspecified), the cell number change came to 15.8%. In addition, the AC50 under setting [1] is 29100 nM [falling, single point].

As for `Cc1ccc(C)c2[nH]c(=O)c(CCNS(=O)(=O)c3ccccc3)cc12`, the AC50 under setting [2] was 92 nM [rising, full curve, poor fit].

With `NS(=O)(=O)c1cc(C(=O)OCC(=O)NNC(=O)c2ccccc2)ccc1Cl`, the cell number change was -43.4%. Also, under setting [2], the half-maximal activity concentration (AC50) was 2310 nM [falling, full curve]. Also, under setting [1], the AC50 was 184 nM [falling, full curve].

For the molecule `N#CC1=C(N)NC(SCc2ccc(Br)cc2)=C(C#N)C12CCCCC2`, the cell number change is -40.1%. Further, the AC50 under setting [2] is 18400 nM [falling, single point]. Also, the half-maximal activity concentration (AC50) under setting [1] was 18400 nM [falling, single point].

Take `C#CCn1c(S(=O)(=O)Cc2ccccc2Cl)nc(-c2ccccc2)c1-c1ccccc1`: the AC50 was 920 nM [rising, partial curve] under setting [2] and 820 nM [rising, full curve] under setting [1].

Regarding `O=C(NCCCn1ccnc1)/C(=C\c1cccs1)NC(=O)c1ccco1`, the cell number change came to 2.25%. Besides, the AC50 under setting [1] is 29100 nM [falling, single point].

Take `CCCCNC(=S)N/N=C/c1ccc(C#N)cc1`: the cell number change was -11.6%. The concentration at half-maximal activity (AC50) under setting [2] is 517 nM [rising, full curve].

`Cc1cccc(Cn2cc(/C=C/[N+](=O)[O-])c3ccccc32)c1`: the cell number change is -14.2%. The half-maximal activity concentration (AC50) under setting [1] was 4610 nM [falling, full curve, poor fit].

As for `O=C(c1ccc(NC(=S)NCc2ccco2)cc1)N1CCOCC1`, under setting [1], the concentration at half-maximal activity (AC50) was 4.61 nM [falling, full curve, poor fit].
